Laboratory results taken from publication doi:10.1101/2024.04.17.589660.
No constants are given. Whether binding was seen depends on the method and setting. Binding seen in cells or lysates may run through a third protein. Here binding means that the protein was enriched with, or labelled near, the bait; the list need not be complete.

Biological target: M2-tagged BatR (3xFLAG-BatR, PA3049) (P. aeruginosa PAO1)
Assay: affinity purification with mass spectrometry

B1: Glycerol phosphate kinase (GlpK, PA3582), endogenous (enzyme, UniProt Q51390 1-505)
chain: MTDKHNKKYVVALDQGTTSSRAIVFDRDANVVSQAQREFAQFYPQAGWVEHDPMEIWATQSSTLVEALAQASIEHDQVAAIGITNQRETTVVWDRHSGRPIHNAIVWQCRRSAAICAQLKRDGLEDYIRETTGLVTDPYFSGTKLKWILDNVEGARERARNGDLLFGTIDTWLIWKLTEGKVHVTDYTNASRTMLFNIHSRDWDARMLEVLDIPRSMLPEVRNSSEVYGNARIGGVGGGELPIAGIAGDQQAALFGQMCVEPGQAKNTYGTGCFLLMHTGDKAVKSTHGLLTTIACGPRGEVGYALEGAVFNGGSTVQWLRDELKVINDSFDSEYFATKVKDSNGVYLVPAFTGLGAPYWDPYARGAVFGLTRGVKADHLIRATLESIAYQTRDVLDAMQRDAGERLRALRVDGGAVANNFLMQFQADILGTRVERPVMRETTALGAAYLAGLACGFWSSLDELKSKAVIERVFEPECDEPRREKLYAGWKKAVERTRGWDDGEL
binding: binds
